Data source: PubChem BioAssay AID1671195 (Yale University, 2021)
The whole screen tested about 22,000 reagents; below is a random part of them. About 1,510 of them (6.9%) were called active. 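Active includes knockdowns raising or lowering LDL uptake; positive z-scores mean more uptake, negative mean less.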 A number with no mark means an inactive call.

- Assay: 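Regulators of LDL receptor activity judged by labelled LDL uptake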 (primary screen)
- System: human Huh7 hepatoma cells
- Reagents: siRNA pool against human genes, 18 nM
- Duration: about 2 to 2.5 days of knockdown, then 8 h LDL uptake
- Treatment: DiI-labelled LDL at 30 µg/ml for 8 h, in lipoprotein-deficient serum medium
- Read-out: 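Per-cell DiI-LDL intensity by automated imaging; well means scaled to the plate median and given as a robust z-score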
- Reading the numbers: robust z-score: higher = more LDL uptake after knockdown
- Rule for the call: 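Active when two or more replicates show a robust z-score above 2 or below -2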

How did the screen score OR5I1 (GeneID 10798)?
robust z-score, replicate 1: -0.998; robust z-score, replicate 2: -1.3; robust z-score, replicate 3: -1.18

With ARFGEF3 (GeneID 57221), what was measured?
robust z-score, replicate 1: 0.999; robust z-score, replicate 2: 0.652; robust z-score, replicate 3: 0.27

With DCAF12L2 (GeneID 340578), what was measured?
robust z-score, replicate 1: -1.44; robust z-score, replicate 2: -1.62; robust z-score, replicate 3: -1.59

For LOC401065 (retired record) (GeneID 401065), how do the results read?
robust z-score, replicate 1: 1.26; robust z-score, replicate 2: 0.734; robust z-score, replicate 3: 1.25

For RPSAP48 (GeneID 392262), what was measured?
robust z-score, replicate 1: -0.6; robust z-score, replicate 2: -0.572; robust z-score, replicate 3: -0.508

For SLC6A11 (GeneID 6538), what was measured?
robust z-score, replicate 1: -0.0788; robust z-score, replicate 2: -0.0785; robust z-score, replicate 3: -0.107

What did the screen give for GKN1 (GeneID 56287)?
robust z-score, replicate 1: 0.23; robust z-score, replicate 2: -0.0348; robust z-score, replicate 3: -0.00107

For PF4V1 (GeneID 5197), what does the deposit list?
robust z-score, replicate 1: 0.785; robust z-score, replicate 2: 0.241; robust z-score, replicate 3: 0.722

How did the screen score CDK4 (GeneID 1019)?
robust z-score, replicate 1: 0.345; robust z-score, replicate 2: 0.521; robust z-score, replicate 3: 1

How did the screen score ELANE (GeneID 1991)?
robust z-score, replicate 1: 1.13; robust z-score, replicate 2: 1.96; robust z-score, replicate 3: 1.42

What is on record for FOXP2 (GeneID 93986)?
robust z-score, replicate 1: 2.39 (active); robust z-score, replicate 2: 2.26; robust z-score, replicate 3: 2.1

What did the screen give for MTARC1 (GeneID 64757)?
robust z-score, replicate 1: -0.74; robust z-score, replicate 2: -0.952; robust z-score, replicate 3: -1.17

For MS4A14 (GeneID 84689), how do the results read?
robust z-score, replicate 1: -0.489; robust z-score, replicate 2: -0.383; robust z-score, replicate 3: -0.43

With TEX21P (GeneID 441687), how do the results read?
robust z-score, replicate 1: -0.918; robust z-score, replicate 2: -0.839; robust z-score, replicate 3: -0.79

For FAM50A (GeneID 9130), what does the deposit list?
robust z-score, replicate 1: 0.305; robust z-score, replicate 2: -0.935; robust z-score, replicate 3: -0.943

What did the screen give for TMCC1 (GeneID 23023)?
robust z-score, replicate 1: -0.226; robust z-score, replicate 2: 1.79; robust z-score, replicate 3: 0.041

What did the screen give for POU4F3 (GeneID 5459)?
robust z-score, replicate 1: 1.26; robust z-score, replicate 2: 1.57; robust z-score, replicate 3: 1.06

For COXFA4 (GeneID 4697), what does the deposit list?
robust z-score, replicate 1: 0.679; robust z-score, replicate 2: -0.0265; robust z-score, replicate 3: -0.476

With SERINC1 (GeneID 57515), what does the deposit list?
robust z-score, replicate 1: -0.341; robust z-score, replicate 2: -0.508; robust z-score, replicate 3: -0.538

How did the screen score RNASE11 (GeneID 122651)?
robust z-score, replicate 1: 0.258; robust z-score, replicate 2: 0.248; robust z-score, replicate 3: -0.414

What did the screen give for LOC400163 (retired record) (GeneID 400163)?
robust z-score, replicate 1: 1.25; robust z-score, replicate 2: 0.968; robust z-score, replicate 3: 0.229

With L1CAM (GeneID 3897), what was measured?
robust z-score, replicate 1: 3.98 (active); robust z-score, replicate 2: 2.2; robust z-score, replicate 3: 3.98

Which result is listed for GTF2F2 (GeneID 2963)?
robust z-score, replicate 1: -0.566; robust z-score, replicate 2: -0.945; robust z-score, replicate 3: -0.768

For OR52J3 (GeneID 119679), what does the deposit list?
robust z-score, replicate 1: 0.103; robust z-score, replicate 2: -0.822; robust z-score, replicate 3: -0.255

With C2CD2L (GeneID 9854), what does the deposit list?
robust z-score, replicate 1: 0.495; robust z-score, replicate 2: 1.22; robust z-score, replicate 3: 0.953

With ONECUT1 (GeneID 3175), how do the results read?
robust z-score, replicate 1: -1.96; robust z-score, replicate 2: -1.78; robust z-score, replicate 3: -1.71

For LOC392179 (retired record) (GeneID 392179), what does the deposit list?
robust z-score, replicate 1: -1.36; robust z-score, replicate 2: -1.86; robust z-score, replicate 3: -1.7

What did the screen give for PCOLCE (GeneID 5118)?
robust z-score, replicate 1: -0.35; robust z-score, replicate 2: -1.46; robust z-score, replicate 3: -0.413

What is on record for SORBS3 (GeneID 10174)?
robust z-score, replicate 1: -0.393; robust z-score, replicate 2: -0.64; robust z-score, replicate 3: 0.0348

What did the screen give for ETV3L (GeneID 440695)?
robust z-score, replicate 1: 0.39; robust z-score, replicate 2: 0.216; robust z-score, replicate 3: 0.68

Copied from the listing, 2 entries:
C2CD2L (GeneID 9854): robust z-score, replicate 1 = 0.495; robust z-score, replicate 2 = 1.22; robust z-score, replicate 3 = 0.953
ONECUT1 (GeneID 3175): robust z-score, replicate 1 = -1.96; robust z-score, replicate 2 = -1.78; robust z-score, replicate 3 = -1.71
